Source: US20150374784A1, “COMPOSITIONS AND METHODS FOR REDUCING GERM CELL DEATH” (Los Angeles Biomedical Research Institute at Harbor-UCLA …, priority 2014, published 2015)
Part of at least one peptide drawing is inferred or uncertain, most often the ends. Peptide text beside a SMILES is read from it.

Legend:
ovaries = type: in vivo; conditions: HNG 5 mg/kg/day IP + CP 100 mg/Kg
Description: A mouse mammary cancer model was used which utilizes 4T1 cells transfected with the luciferase gene. Growth and size of 4T1 mammary tumors were detected by bioluminescence imaging (IVIS Luminia II, Perkin Elmer, Waltham, Mass.). Mice (n=5 to 7 per group) were inoculated with 1×10^6 4 T1 cells into the right third mammary gland, and 7 days later they were left untreated or treated with HNG (5 mg/kg/day IP), CP (100 mg/Kg single IP) or HNG+CP for 14 days. Animals were sacrificed and both ovaries were removed from each mouse on day 14 after the start of treatment. Serial 5-micrometer sections were made. Every 5th section was examined and the number of primordial, primary, and secondary follicles counted (Kim S Y, et al., 2013; Bristol-Gould S K, et al., 2006; Roti Roti E C, et al., 2012). In addition, TUNEL staining for apoptotic cells and oocytes was quantified (Perez G I, et al., 1997; Ben-Aharon I, et al., 2010).

sperm = test: Cauda epididymal sperm count after multiple doses of CP in mice; type: in vivo, mouse
Description: The objective of this study was to investigate whether HNG has protective effect on sperm output after multiple doses of CP in mice. Thirty adult male mice (C57BL/6J) were randomized into 4 groups: 1) 5 as control; 2) 5 received daily subcutaneously injection of HNG (10 mg/kg BW); 3) 10 were given 6 doses of CP (150 mg/kg BW) intraperitoneally at 5-day intervals; 4) 10 received both HNG and CP. All mice were killed at 28 days. Plasma HNG and IGF-1 levels were measured by ELISAs. The cauda epididymal sperm count was performed using a hemocytometer.

CC[C@H](C)[C@H](NC(=O)[C@H](CCC(=O)O)NC(=O)CNC(=O)[C@@H](NC(=O)[C@H](CC(C)C)NC(=O)[C@H](CC(C)C)NC(=O)[C@H](CC(C)C)NC(=O)[C@H](CC(C)C)NC(=O)[C@H](CS)NC(=O)[C@H](CO)NC(=O)[C@H](Cc1ccccc1)NC(=O)CNC(=O)[C@H](CCCNC(=N)N)NC(=O)[C@@H]1CCCN1C(=O)[C@H](C)NC(=O)[C@@H](N)CCSC)[C@@H](C)O)C(=O)N[C@@H](CC(=O)O)C(=O)N[C@@H](CC(C)C)C(=O)N1CCC[C@H]1C(=O)N[C@H](C(=O)N[C@@H](CCCCN)C(=O)N[C@@H](CCCNC(=N)N)C(=O)N[C@@H](CCCNC(=N)N)C(=O)N[C@@H](C)C(=O)O)C(C)C [HNG] (H-MAPRGFSCLLLLTGEIDLPVKRRA-OH; N-terminus and C-terminus assumed)
CP-induced decrease in follicles (ovaries): appeared to reverse the CP-induced decrease in follicles | cauda epididymal sperm count (sperm; 28 days, HNG 10 mg/kg BW daily subcutaneously, CP 150 mg/kg BW IP, 6 doses at 5-day intervals): 1.7±0.2 ×10^6/mg | CP-induced suppression of sperm output (sperm; HNG 10 mg/kg BW daily + CP 6 doses): prevents CP-induced suppression of sperm output
